Article PMC3916286, “NSUN4 Is a Dual Function Mitochondrial Protein Required for Both Methylation of 12S rRNA and Coordination of Mitoribosomal Assembly”
Construct, isoform or probe ends are uncertain for at least one entry. The comparison behind a weaker result is the experiment's own reference, which may not be listed here. At least one verdict rests on a figure or table, not on a statement of the authors.

The sequences below were run on NSUN4 + MTERF4 (assay: EMSA). Conditions: protein 0-2.56 uM; EMSA with 40 ng RNA and 0-2.56 uM protein; pH and temperature not given; recombinant protein.
“AUGUAGCAAAAUAGUGGGAAGAUUUAUAGGUAG [ss16S:1377-1409]”: binds more weakly. “CUACCUAAGAACAGCUAAAAGAGCACACCCGUCU [ss16S:1343-1376]”: binds more weakly. “UUCAAAUUCCUCCCUGUACGAAAGGACAAGAGAAAUAAGGCCUACUUCACAAAGCGCCUUCCCCCG [ds16S:2532-2597]”: binds. “CUACCUAAGAACAGCUAAAAGAGCACACCCGUCUAUGUAGCAAAAUAGUGGGAAGAUUUAUAGGUAG [ds16S:1343-1409]”: binds.
